The list shows only some results of the screen, not a fair sample: it gathers tests that were run many times, whatever their T/C, doses with no T/C, and many T/C values between a quarter and a half above the control. Other doses and runs of a compound stand elsewhere. T/C gives the treated animals as a percentage of the vehicle group. Schedules are NCI's codes, read here as Q, the interval in days (D) or hours (H), X, the number of doses. Some T/C values are followed by the survivors on the day toxicity was checked, most often the fifth; without a count, all were alive then. Some entries hold several experiments; the results are listed from low to high. Some doses have a count of surviving animals in place of a T/C: the source holds a T/C of zero for them, seemingly a mark for toxic or unscored doses. Survivors were counted at the toxicity check, usually on the fifth day, unless a day is given; later deaths do not show. Some molecules as drawn cover several salts, stereoisomers or complexes of the source; a dose is that of the sample tested. Where survival is the endpoint, this PubChem deposit counts one and a half times the control or more as active, and values a quarter to a half above the control carry no call in these data; other NCI protocols may use other cut-offs.
Tested on: BDF1 mice, colon carcinoma 38 sc, T/C %
Assay: NCI In Vivo Anticancer Drug Screen. Data for tumor model Colon Carcinoma 38 (subcutaneous) in B6D2F1 (BDF1) mice
Procedure, shortened: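 Ratio of survival or tumor size, compound-treated animals relative to vehicle controls, in tumor-bearing mice.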

[1] = T/C endpoint: median tumor weight (est.), dose: 200.0 mg/kg/injection, schedule: Q07DX002 (ip), vehicle: saline with Tween-80, higher T/C = larger tumour
[2] = T/C endpoint: median tumor weight (est.), dose: 400.0 mg/kg/injection, schedule: Q07DX002 (ip), vehicle: saline with Tween-80, higher T/C = larger tumour
[3] = T/C endpoint: median tumor weight (est.), dose: 25.0 mg/kg/injection, schedule: Q07DX002 (ip), vehicle: saline with Tween-80, evaluated on day 20, higher T/C = larger tumour
[4] = T/C endpoint: median tumor weight (est.), dose: 400.0 mg/kg/injection, schedule: Q07DX002 (ip), vehicle: saline with Tween-80, evaluated on day 20, higher T/C = larger tumour
[5] = T/C endpoint: median tumor weight (est.), dose: 50.0 mg/kg/injection, schedule: Q07DX002 (ip), vehicle: saline with Tween-80, evaluated on day 20, higher T/C = larger tumour

C=CS(=O)(=O)c1ccccc1
T/C (T/C endpoint: median tumor weight (est.), dose: 6.25 mg/kg/injection, schedule: Q07DX002 (ip), vehicle: saline, evaluated on day 20, higher T/C = larger tumour): 145 % of control | T/C (T/C endpoint: median tumor weight (est.), dose: 25.0 mg/kg/injection, schedule: Q07DX002 (ip), vehicle: saline, evaluated on day 20, higher T/C = larger tumour): 125 % of control [9 of 10 alive] | T/C (T/C endpoint: median tumor weight (est.), dose: 100.0 mg/kg/injection, schedule: Q07DX002 (ip), vehicle: saline, evaluated on day 20, higher T/C = larger tumour): 140 % of control [9 of 10 alive] | survivor count [1]: 1 of 10 on day 20

Cc1[nH]c(=O)[nH]c(=O)c1N(CCF)CCCl
T/C (T/C endpoint: median tumor weight (est.), dose: 8.0 mg/kg/injection, schedule: Q07DX002 (ip), vehicle: Klucel (hydroxypropylcellulose) (HPC), evaluated on day 20, higher T/C = larger tumour): 138 % of control | T/C (T/C endpoint: median tumor weight (est.), dose: 8.0 mg/kg/injection, schedule: Q07DX003 (ip), vehicle: Klucel (hydroxypropylcellulose) (HPC), evaluated on day 20, higher T/C = larger tumour): 38 [9 of 10 alive], 104, 106, 162, 244 % of control | T/C (T/C endpoint: median tumor weight (est.), dose: 16.0 mg/kg/injection, schedule: Q07DX002 (ip), vehicle: Klucel (hydroxypropylcellulose) (HPC), evaluated on day 20, higher T/C = larger tumour): 133 % of control | T/C (T/C endpoint: median tumor weight (est.), dose: 16.0 mg/kg/injection, schedule: Q07DX003 (ip), vehicle: Klucel (hydroxypropylcellulose) (HPC), evaluated on day 20, higher T/C = larger tumour): 28, 65, 76, 126, 231 % of control | T/C (T/C endpoint: median tumor weight (est.), dose: 32.0 mg/kg/injection, schedule: Q07DX003 (ip), vehicle: Klucel (hydroxypropylcellulose) (HPC), evaluated on day 20, higher T/C = larger tumour): 32, 36, 49 [9 of 10 alive], 60, 68 % of control [9 of 10 alive] | survivor count (T/C endpoint: median tumor weight (est.), dose: 64.0 mg/kg/injection, schedule: Q07DX002 (ip), vehicle: Klucel (hydroxypropylcellulose) (HPC), higher T/C = larger tumour): 1 of 10 and 5 of 10 | survivor count (T/C endpoint: median tumor weight (est.), dose: 64.0 mg/kg/injection, schedule: Q07DX003 (ip), vehicle: Klucel (hydroxypropylcellulose) (HPC), higher T/C = larger tumour): 1 of 10

CC[n+]1ccc(Nc2ccc(NC(=O)c3ccc(C(=O)Nc4ccc(Nc5cc[n+](CC)c(N)n5)cc4)cc3)cc2)nc1N
T/C (T/C endpoint: median tumor weight (est.), dose: 12.5 mg/kg/injection, schedule: Q07DX003 (ip), vehicle: suspension in saline, evaluated on day 20, higher T/C = larger tumour): 140 % of control

O=[N+]([O-])c1ccc(Sc2ccncn2)c([N+](=O)[O-])c1
survivor count [1]: 4 of 10 on day 20 and 5 of 10 on day 20 | survivor count [2]: 0 of 10 on day 20

N=C(N)CCCCCCCCC(=N)N
T/C (T/C endpoint: median tumor weight (est.), dose: 1.56 mg/kg/injection, schedule: Q07DX002 (ip), vehicle: saline, evaluated on day 20, higher T/C = larger tumour): 133 % of control [9 of 10 alive on day 20] | survivor count (T/C endpoint: median tumor weight (est.), dose: 6.25 mg/kg/injection, schedule: Q07DX002 (ip), vehicle: saline, higher T/C = larger tumour): 0 of 10 on day 20 | survivor count (T/C endpoint: median tumor weight (est.), dose: 12.5 mg/kg/injection, schedule: Q07DX002 (ip), vehicle: saline, higher T/C = larger tumour): 1 of 10 on day 20 | survivor count (T/C endpoint: median tumor weight (est.), dose: 25.0 mg/kg/injection, schedule: Q07DX002 (ip), vehicle: saline, higher T/C = larger tumour): 0 of 10 on day 20 | survivor count (T/C endpoint: median tumor weight (est.), dose: 50.0 mg/kg/injection, schedule: Q07DX002 (ip), vehicle: saline, higher T/C = larger tumour): 0 of 10 on day 20 and 1 of 10 on day 20

O=C(O)/C=C/C(=O)N1Cc2cc3ccccc3nc2C1
T/C [3]: 149 % of control | T/C [4]: 138 % of control [9 of 10 alive on day 20]

O=Cc1ccc(C(Cl)(Cl)Cl)cc1
T/C [5]: 149 % of control | survivor count [2]: 6 of 10 on day 20

[Cl][Pt+2][Cl].[NH-]C1CCC1.[NH2-]
survivor count (T/C endpoint: median tumor weight (est.), dose: 24.0 mg/kg/injection, schedule: Q07DX002 (ip), vehicle: saline, higher T/C = larger tumour): 1 of 10 on day 20 | survivor count (T/C endpoint: median tumor weight (est.), dose: 48.0 mg/kg/injection, schedule: Q07DX002 (ip), vehicle: saline, higher T/C = larger tumour): 0 of 10 on day 20 and 1 of 10 on day 20

CN(Cc1cnc2nc(N)nc(N)c2n1)c1c(Cl)cc(C(=O)NC(CCC(=O)O)C(=O)O)cc1Cl (stereo unspecified)
T/C (T/C endpoint: median tumor weight (est.), dose: 12.5 mg/kg/injection, schedule: Q07DX003 (ip), vehicle: Klucel (hydroxypropylcellulose) (HPC), evaluated on day 20, higher T/C = larger tumour): 135 % of control | survivor count (T/C endpoint: median tumor weight (est.), dose: 12.5 mg/kg/injection, schedule: Q07DX003 (ip), vehicle: Klucel (hydroxypropylcellulose) (HPC), higher T/C = larger tumour): 2 of 10

C[C@]12CC[C@@H]3c4ccc(OC(=O)Cc5ccc(N(CCCl)CCCl)cc5)cc4CC[C@H]3[C@@H]1CC[C@@H]2OC(=O)Cc1ccc(N(CCCl)CCCl)cc1
T/C [3]: 125 and 141 % of control | T/C [5]: 142 % of control | T/C (T/C endpoint: median tumor weight (est.), dose: 100.0 mg/kg/injection, schedule: Q07DX002 (ip), vehicle: saline with Tween-80, evaluated on day 20, higher T/C = larger tumour): 140 % of control | T/C [4]: 149 % of control | T/C (T/C endpoint: median tumor weight (est.), dose: 800.0 mg/kg/injection, schedule: Q07DX002 (ip), vehicle: saline with Tween-80, evaluated on day 20, higher T/C = larger tumour): 144 % of control

COc1cc(NCc2ccc3nc(N)nc(N)c3c2C)cc(OC)c1OC
T/C (T/C endpoint: median survival time, dose: 2.0 mg/kg/injection, schedule: Q04HX021 (ip), vehicle: sodium bicarbonate, higher T/C = longer survival): 140 % of control | T/C (T/C endpoint: median survival time, dose: 3.2 mg/kg/injection, schedule: Q04HX021 (ip), vehicle: sodium bicarbonate, higher T/C = longer survival): 140 % of control | T/C (T/C endpoint: median survival time, dose: 13.3 mg/kg/injection, schedule: Q06HX012 (oral), vehicle: sodium bicarbonate, higher T/C = longer survival): 132 % of control [9 of 10 alive on day 70] | T/C (T/C endpoint: median survival time, dose: 13.3 mg/kg/injection, schedule: Q06HX014 (ip), vehicle: sodium bicarbonate, higher T/C = longer survival): 127 % of control [8 of 10 alive on day 70] | survivor count (T/C endpoint: median survival time, dose: 13.5 mg/kg/injection, schedule: Q04HX021 (ip), vehicle: sodium bicarbonate, higher T/C = longer survival): 4 of 10 on day 59 | survivor count (T/C endpoint: median survival time, dose: 20.0 mg/kg/injection, schedule: Q06HX014 (ip), vehicle: sodium bicarbonate, higher T/C = longer survival): 5 of 10 on day 70 | survivor count (T/C endpoint: median survival time, dose: 30.0 mg/kg/injection, schedule: Q06HX012 (oral), vehicle: sodium bicarbonate, higher T/C = longer survival): 1 of 10 on day 70 | survivor count (T/C endpoint: median survival time, dose: 30.0 mg/kg/injection, schedule: Q06HX014 (ip), vehicle: sodium bicarbonate, higher T/C = longer survival): 0 of 5 on day 70 | survivor count (T/C endpoint: median survival time, dose: 45.0 mg/kg/injection, schedule: Q06HX012 (oral), vehicle: sodium bicarbonate, higher T/C = longer survival): 2 of 5 on day 70 | survivor count (T/C endpoint: median survival time, dose: 100.0 mg/kg/injection, schedule: Q07DX002 (ip), vehicle: sodium bicarbonate, higher T/C = longer survival): 6 of 10 on day 70 | survivor count (T/C endpoint: median survival time, dose: 150.0 mg/kg/injection, schedule: Q07DX002 (ip), vehicle: sodium bicarbonate, higher T/C = longer survival): 2 of 9 on day 70 | survivor count (T/C endpoint: median survival time, dose: 225.0 mg/kg/injection, schedule: Q07DX002 (ip), vehicle: sodium bicarbonate, higher T/C = longer survival): 0 of 10 on day 70 | survivor count (T/C endpoint: median survival time, dose: 335.0 mg/kg/injection, schedule: Q07DX002 (ip), vehicle: sodium bicarbonate, higher T/C = longer survival): 0 of 5 on day 70 | survivor count (T/C endpoint: median tumor weight (est.), dose: 148.0 mg/kg/injection, schedule: Q07DX002 (ip), vehicle: water, higher T/C = larger tumour): 4 of 10 on day 20 | survivor count (T/C endpoint: median tumor weight (est.), dose: 157.0 mg/kg/injection, schedule: Q07DX002 (ip), vehicle: water, higher T/C = larger tumour): 0 of 10 on day 20 | survivor count (T/C endpoint: median tumor weight (est.), dose: 180.0 mg/kg/injection, schedule: Q07DX002 (ip), vehicle: water, higher T/C = larger tumour): 5 of 10 on day 20 | survivor count (T/C endpoint: median tumor weight (est.), dose: 200.0 mg/kg/injection, schedule: Q07DX002 (ip), vehicle: water, higher T/C = larger tumour): 5 of 10 on day 20 | survivor count (T/C endpoint: median tumor weight (est.), dose: 222.0 mg/kg/injection, schedule: Q07DX002 (ip), vehicle: water, higher T/C = larger tumour): 0 of 10 on day 20 | survivor count (T/C endpoint: median tumor weight (est.), dose: 236.0 mg/kg/injection, schedule: Q07DX002 (ip), vehicle: water, higher T/C = larger tumour): 0 of 10 on day 20 | survivor count (T/C endpoint: median tumor weight (est.), dose: 270.0 mg/kg/injection, schedule: Q07DX002 (ip), vehicle: water, higher T/C = larger tumour): 0 of 10 on day 20 | survivor count (T/C endpoint: median tumor weight (est.), dose: 334.0 mg/kg/injection, schedule: Q07DX002 (ip), vehicle: water, higher T/C = larger tumour): 0 of 10 on day 20 | survivor count (T/C endpoint: median tumor weight (est.), dose: 354.0 mg/kg/injection, schedule: Q07DX002 (ip), vehicle: water, higher T/C = larger tumour): 0 of 10 on day 20 | survivor count (T/C endpoint: median tumor weight (est.), dose: 400.0 mg/kg/injection, schedule: Q07DX002 (ip), vehicle: water, higher T/C = larger tumour): 0 of 5 on day 20 | survivor count (T/C endpoint: median tumor weight (est.), dose: 405.0 mg/kg/injection, schedule: Q07DX002 (ip), vehicle: water, higher T/C = larger tumour): 0 of 10 on day 20 | survivor count (T/C endpoint: median tumor weight (est.), dose: 501.0 mg/kg/injection, schedule: Q07DX002 (ip), vehicle: water, higher T/C = larger tumour): 0 of 10 on day 20 | survivor count (T/C endpoint: median tumor weight (est.), dose: 531.0 mg/kg/injection, schedule: Q07DX002 (ip), vehicle: water, higher T/C = larger tumour): 0 of 10 on day 20

Cc1c2cc[n+](CCN3CCCCC3)cc2c(C)c2c1[nH]c1ccc(O)cc12
survivor count (T/C endpoint: median tumor weight (est.), dose: 100.0 mg/kg/injection, schedule: Q07DX002 (ip), vehicle: suspension in saline, higher T/C = larger tumour): 1 of 10 on day 20

CCCCn1cnc2c(=S)nc[nH]c21
survivor count (T/C endpoint: median tumor weight (est.), dose: 800.0 mg/kg/injection, schedule: Q07DX002 (ip), vehicle: saline with Tween-80, higher T/C = larger tumour): 0 of 10 on day 20 and 1 of 9 on day 20

Nc1nc2n[nH]nc2c(=O)[nH]1
survivor count (T/C endpoint: median tumor weight (est.), dose: 800.0 mg/kg/injection, schedule: Q07DX002 (ip), vehicle: suspension in saline, higher T/C = larger tumour): 2 of 10 on day 20

Reference: PubChem BioAssay AID212 (DTP/NCI, 2004)
